Measured values from the supplement of paper PMC10849652.
The other results are listed elsewhere or left out.

The chains behind the UniProt entries cited, without tags or fusion partners. Where a name states a change or a piece, a line headed by the entry shows the natural chain unless it says otherwise.
UniProt O94842: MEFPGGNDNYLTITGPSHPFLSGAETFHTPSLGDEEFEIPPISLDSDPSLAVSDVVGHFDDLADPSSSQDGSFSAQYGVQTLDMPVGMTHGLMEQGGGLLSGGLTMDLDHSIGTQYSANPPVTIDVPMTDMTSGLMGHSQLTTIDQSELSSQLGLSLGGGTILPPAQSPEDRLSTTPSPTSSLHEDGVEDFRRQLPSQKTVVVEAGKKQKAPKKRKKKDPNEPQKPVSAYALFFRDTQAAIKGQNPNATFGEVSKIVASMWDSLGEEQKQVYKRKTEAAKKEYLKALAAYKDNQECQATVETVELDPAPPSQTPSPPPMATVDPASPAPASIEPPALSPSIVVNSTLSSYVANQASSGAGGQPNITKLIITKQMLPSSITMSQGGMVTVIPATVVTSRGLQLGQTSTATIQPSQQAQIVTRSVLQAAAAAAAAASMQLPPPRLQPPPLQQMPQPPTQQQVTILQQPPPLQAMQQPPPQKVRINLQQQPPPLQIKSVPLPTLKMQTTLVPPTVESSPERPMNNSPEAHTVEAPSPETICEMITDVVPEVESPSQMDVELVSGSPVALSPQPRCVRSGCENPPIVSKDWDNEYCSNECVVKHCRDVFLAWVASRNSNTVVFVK
UniProt Q16890: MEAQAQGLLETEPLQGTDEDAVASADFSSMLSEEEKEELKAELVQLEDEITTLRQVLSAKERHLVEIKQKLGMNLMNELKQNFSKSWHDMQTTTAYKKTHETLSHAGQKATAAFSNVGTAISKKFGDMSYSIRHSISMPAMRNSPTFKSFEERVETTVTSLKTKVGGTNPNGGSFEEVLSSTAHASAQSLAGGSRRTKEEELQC
UniProt Q9Y5L0: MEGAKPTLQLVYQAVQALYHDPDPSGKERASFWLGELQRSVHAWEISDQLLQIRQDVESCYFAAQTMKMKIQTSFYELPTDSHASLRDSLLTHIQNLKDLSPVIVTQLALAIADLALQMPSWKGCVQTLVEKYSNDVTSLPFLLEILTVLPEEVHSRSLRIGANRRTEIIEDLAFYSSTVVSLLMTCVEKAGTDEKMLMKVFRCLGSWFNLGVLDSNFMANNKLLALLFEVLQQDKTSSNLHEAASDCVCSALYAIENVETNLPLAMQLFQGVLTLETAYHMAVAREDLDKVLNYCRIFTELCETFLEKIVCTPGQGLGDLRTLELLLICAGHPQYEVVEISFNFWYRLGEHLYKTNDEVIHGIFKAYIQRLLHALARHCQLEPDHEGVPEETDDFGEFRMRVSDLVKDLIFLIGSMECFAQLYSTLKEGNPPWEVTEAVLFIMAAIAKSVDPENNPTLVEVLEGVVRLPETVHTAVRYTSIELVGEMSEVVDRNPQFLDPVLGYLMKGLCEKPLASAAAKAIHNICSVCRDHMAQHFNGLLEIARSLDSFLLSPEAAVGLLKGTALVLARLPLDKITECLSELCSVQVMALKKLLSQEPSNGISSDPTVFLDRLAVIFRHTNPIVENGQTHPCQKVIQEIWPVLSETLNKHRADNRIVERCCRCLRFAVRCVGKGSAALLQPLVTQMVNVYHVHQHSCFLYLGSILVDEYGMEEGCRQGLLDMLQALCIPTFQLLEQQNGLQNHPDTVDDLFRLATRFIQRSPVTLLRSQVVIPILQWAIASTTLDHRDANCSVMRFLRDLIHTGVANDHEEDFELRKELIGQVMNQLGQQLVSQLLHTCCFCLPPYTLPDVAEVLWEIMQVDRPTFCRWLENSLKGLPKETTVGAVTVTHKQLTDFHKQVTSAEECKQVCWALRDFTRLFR
UniProt O43715: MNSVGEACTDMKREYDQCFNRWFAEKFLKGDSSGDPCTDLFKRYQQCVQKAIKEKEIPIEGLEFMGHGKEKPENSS
UniProt Q15642: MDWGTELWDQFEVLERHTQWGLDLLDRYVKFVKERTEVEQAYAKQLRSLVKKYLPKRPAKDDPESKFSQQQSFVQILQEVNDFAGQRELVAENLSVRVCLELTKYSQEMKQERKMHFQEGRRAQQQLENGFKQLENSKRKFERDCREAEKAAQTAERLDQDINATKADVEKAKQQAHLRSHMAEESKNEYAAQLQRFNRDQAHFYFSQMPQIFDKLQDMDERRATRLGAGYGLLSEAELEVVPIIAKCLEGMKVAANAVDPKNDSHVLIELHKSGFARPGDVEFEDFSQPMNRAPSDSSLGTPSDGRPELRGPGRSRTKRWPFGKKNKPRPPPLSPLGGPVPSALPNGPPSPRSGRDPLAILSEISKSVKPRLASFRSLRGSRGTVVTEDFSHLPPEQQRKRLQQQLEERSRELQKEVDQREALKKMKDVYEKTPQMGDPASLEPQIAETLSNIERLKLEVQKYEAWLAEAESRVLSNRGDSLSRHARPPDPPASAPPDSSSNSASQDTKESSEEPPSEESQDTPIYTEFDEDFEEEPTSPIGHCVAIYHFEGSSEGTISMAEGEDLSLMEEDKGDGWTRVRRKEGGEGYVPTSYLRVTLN
UniProt P67936, whole entry, looked up: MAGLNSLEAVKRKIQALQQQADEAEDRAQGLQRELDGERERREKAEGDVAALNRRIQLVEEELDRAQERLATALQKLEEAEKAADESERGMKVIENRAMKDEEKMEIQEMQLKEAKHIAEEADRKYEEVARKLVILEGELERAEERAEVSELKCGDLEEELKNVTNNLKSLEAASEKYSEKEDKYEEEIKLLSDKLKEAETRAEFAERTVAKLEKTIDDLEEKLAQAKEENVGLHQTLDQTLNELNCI
UniProt P28908: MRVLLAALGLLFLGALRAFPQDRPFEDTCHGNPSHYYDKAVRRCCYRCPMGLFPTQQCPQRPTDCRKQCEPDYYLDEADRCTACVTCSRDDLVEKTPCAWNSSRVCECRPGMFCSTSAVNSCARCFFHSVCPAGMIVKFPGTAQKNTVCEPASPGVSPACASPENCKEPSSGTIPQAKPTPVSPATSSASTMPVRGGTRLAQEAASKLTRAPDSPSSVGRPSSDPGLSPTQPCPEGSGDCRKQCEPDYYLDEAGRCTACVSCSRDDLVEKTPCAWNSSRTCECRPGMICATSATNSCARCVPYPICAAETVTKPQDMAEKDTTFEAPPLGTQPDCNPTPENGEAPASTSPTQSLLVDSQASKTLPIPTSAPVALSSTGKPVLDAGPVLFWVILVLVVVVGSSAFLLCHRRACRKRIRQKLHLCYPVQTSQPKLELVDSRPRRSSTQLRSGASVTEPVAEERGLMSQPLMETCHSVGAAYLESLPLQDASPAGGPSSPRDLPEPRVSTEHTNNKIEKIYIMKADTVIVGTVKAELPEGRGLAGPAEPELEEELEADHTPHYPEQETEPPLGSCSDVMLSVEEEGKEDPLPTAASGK
UniProt P07951, whole entry, looked up: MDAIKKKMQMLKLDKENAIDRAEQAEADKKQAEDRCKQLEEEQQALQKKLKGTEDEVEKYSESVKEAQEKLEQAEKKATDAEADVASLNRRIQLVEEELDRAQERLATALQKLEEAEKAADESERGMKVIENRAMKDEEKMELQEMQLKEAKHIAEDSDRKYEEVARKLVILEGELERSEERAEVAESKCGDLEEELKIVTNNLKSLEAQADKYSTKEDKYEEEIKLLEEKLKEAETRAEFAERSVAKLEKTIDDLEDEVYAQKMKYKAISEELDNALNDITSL
UniProt Q9ULW0, whole entry, looked up: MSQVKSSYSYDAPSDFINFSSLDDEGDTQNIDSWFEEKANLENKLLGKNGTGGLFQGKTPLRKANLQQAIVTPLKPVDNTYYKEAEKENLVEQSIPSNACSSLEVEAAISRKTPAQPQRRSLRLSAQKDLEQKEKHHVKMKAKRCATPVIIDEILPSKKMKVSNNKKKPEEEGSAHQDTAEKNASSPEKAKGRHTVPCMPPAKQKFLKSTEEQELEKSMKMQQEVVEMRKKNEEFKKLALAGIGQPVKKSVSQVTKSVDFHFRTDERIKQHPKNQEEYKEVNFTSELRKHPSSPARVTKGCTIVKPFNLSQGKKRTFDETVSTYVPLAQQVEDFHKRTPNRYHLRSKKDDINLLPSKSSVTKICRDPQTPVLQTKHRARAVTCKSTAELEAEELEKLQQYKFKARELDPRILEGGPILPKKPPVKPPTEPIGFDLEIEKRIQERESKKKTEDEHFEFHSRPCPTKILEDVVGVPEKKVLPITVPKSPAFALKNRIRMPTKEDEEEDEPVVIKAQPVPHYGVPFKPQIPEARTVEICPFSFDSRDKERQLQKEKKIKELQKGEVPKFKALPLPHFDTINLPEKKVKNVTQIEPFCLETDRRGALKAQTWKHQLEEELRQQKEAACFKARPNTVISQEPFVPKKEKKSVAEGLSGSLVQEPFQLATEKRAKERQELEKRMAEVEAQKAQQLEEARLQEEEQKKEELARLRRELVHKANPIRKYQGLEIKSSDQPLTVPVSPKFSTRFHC
UniProt O14656: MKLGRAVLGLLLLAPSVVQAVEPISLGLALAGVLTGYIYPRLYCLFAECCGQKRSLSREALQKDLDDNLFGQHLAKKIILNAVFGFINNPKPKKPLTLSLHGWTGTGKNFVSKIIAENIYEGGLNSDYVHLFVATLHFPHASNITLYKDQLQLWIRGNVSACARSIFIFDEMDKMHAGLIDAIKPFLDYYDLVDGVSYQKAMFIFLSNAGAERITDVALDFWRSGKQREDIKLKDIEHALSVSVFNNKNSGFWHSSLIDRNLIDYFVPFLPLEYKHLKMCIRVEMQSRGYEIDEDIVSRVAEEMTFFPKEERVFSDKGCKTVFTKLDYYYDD
UniProt P51580: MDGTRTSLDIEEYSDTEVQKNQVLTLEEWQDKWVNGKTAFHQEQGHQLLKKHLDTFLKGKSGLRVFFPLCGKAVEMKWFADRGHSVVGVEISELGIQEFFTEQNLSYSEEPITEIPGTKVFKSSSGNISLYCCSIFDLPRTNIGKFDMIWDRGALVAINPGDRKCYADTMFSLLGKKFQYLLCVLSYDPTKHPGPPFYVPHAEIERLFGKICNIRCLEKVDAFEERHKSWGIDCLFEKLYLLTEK
UniProt Q9NXH8: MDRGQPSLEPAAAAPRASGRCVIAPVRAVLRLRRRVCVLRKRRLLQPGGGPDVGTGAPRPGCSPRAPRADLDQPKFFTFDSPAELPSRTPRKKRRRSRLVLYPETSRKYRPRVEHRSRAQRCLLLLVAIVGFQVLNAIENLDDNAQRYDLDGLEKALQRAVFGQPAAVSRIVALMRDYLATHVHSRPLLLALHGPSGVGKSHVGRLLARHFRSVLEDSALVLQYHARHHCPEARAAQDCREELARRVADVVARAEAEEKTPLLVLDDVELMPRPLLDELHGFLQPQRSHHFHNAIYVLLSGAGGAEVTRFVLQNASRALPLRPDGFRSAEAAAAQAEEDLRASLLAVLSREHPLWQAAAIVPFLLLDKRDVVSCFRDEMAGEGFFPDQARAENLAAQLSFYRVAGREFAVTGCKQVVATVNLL
UniProt Q7Z392: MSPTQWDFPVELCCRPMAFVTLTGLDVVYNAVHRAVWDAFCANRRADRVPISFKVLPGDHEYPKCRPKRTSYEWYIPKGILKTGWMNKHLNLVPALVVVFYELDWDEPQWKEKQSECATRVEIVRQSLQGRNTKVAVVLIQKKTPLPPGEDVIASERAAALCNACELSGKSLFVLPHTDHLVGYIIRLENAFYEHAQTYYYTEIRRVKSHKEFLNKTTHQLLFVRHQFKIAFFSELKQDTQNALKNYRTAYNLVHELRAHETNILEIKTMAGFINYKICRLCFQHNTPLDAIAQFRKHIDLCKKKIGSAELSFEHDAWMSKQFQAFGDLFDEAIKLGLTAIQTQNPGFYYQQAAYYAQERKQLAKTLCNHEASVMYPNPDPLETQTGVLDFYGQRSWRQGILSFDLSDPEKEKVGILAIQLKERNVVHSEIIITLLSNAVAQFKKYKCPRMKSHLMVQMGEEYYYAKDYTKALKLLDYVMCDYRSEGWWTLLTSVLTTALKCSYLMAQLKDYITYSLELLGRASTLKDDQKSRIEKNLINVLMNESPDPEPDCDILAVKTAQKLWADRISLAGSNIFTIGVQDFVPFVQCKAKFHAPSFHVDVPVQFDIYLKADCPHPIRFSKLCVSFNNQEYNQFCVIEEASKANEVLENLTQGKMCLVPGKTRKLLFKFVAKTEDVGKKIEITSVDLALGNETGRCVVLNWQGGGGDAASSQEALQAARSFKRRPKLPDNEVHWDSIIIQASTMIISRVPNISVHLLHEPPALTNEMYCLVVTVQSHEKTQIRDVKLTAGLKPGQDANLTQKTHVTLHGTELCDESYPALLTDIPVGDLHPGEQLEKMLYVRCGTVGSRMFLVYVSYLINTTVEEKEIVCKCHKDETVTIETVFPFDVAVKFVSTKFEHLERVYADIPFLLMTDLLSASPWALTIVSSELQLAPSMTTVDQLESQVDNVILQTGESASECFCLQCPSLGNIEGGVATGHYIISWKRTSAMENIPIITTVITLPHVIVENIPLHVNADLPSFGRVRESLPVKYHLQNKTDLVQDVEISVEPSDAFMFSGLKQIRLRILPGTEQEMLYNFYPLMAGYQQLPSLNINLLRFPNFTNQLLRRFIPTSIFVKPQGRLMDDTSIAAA

Compound: NC(=O)c1cnc(N[C@@H]2CCCC[C@@H]2N)nc1Nc1cccc(-n2nccn2)c1
Test: log2 fold change, soluble protein after heating vs DMSO (PISA); higher = thermal stabilisation; K562 cells, 10 uM, 30 min; active = over 0.2 and 3.5 SD of the protein, either way, in both replicates (recomputed)
Outline: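 Thermal stability values are relative to control samples and come from duplicates. They are expressed as log2 fold changes. For measurement, K562 cells (2×10^6 cells/mL) received 10 μM compound for 30 min, and aliquots were heated for 3 min over 48°C-58°C, pooled, and extracted at 4°C in PBS with 0.5% NP-40. Soluble protein, the supernatant after 21,000xg for 90 min, was quantified by TMTpro 16plex LC-MS/MS with equalised channel sums.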

log2 fold change, inactive:
TOX4 (UniProt O94842) 0.094
TPD52L1 (UniProt Q16890) -0.043
TNPO3 (UniProt Q9Y5L0) -0.018
TPM1 (UniProt H7BYY1) -0.115
TOLLIP (UniProt Q9H0E2) -0.043
TRA2B (UniProt P62995) 0.268
TP53BP1 isoform 2 (UniProt Q12888) -0.056
TRIAP1 (UniProt O43715) 0.062
TRIP10 (UniProt Q15642) -0.055
TPM4 isoform 2 (UniProt P67936) 0.137
TSEN2 (UniProt Q8NCE0) -0.008
TNFRSF8 (UniProt P28908) 0.128
TPM2 (UniProt P07951) 0.081
TPX2 (UniProt Q9ULW0) 0.003
TPST2 (UniProt O60704) -0.009
TOR1A (UniProt O14656) -0.022
TRMT13 (UniProt Q9NUP7) -0.041
TRMT1L (UniProt Q7Z2T5) 0.097
TPMT (UniProt P51580) -0.019
TPI1 (UniProt P60174) -0.013
TOR4A (UniProt Q9NXH8) 0.074
TNKS1BP1 (UniProt Q9C0C2) 0.051
TRAPPC11 (UniProt Q7Z392) -0.11
